These are yes or no findings as the source states them, for the method shown. In cells and extracts the contact can be indirect. Some results given as binding are weak or reduced against the parent protein; the word gives no strength.

Sequences of proteins named here, by UniProt entry; tags and fusion partners are left off. Residues count along the entry.
UniProt P21926: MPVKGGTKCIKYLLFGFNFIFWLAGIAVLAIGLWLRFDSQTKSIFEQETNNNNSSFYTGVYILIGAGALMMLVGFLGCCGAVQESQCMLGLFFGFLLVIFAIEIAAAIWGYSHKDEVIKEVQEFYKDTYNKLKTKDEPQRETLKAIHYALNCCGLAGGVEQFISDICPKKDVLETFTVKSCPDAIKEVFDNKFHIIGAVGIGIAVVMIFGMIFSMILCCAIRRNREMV
UniProt P16070, residues 21-742: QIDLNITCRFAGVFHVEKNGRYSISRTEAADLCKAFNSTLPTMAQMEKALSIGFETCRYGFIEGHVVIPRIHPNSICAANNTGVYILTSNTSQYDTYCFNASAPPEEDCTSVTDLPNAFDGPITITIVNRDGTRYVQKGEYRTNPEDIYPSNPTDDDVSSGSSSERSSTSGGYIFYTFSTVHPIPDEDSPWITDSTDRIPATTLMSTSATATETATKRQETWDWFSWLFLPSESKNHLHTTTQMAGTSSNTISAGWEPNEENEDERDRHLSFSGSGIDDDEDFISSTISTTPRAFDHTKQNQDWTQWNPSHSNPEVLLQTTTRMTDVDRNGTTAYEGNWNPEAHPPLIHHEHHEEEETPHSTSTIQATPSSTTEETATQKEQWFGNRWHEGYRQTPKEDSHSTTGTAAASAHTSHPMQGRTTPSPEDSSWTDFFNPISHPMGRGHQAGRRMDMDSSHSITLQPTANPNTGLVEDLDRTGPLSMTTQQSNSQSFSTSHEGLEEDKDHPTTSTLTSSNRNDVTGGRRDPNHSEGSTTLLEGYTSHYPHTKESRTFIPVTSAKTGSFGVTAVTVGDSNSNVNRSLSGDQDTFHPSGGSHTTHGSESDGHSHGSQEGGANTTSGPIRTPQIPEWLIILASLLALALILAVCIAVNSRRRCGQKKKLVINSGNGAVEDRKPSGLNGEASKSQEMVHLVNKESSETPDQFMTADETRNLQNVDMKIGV

The values that follow come from PMC13080232.

In the assay the target is CD9:TurboID fusion protein (human) (UniProt P21926). Description: co-IP; RIPA whole cell lysates of CD9-/- A549 cells transfected with CD9:TurboID (eGFP cells as control); rabbit anti-V5 antibody on protein G magnetic beads, 60 min at 4 °C; washed in PBS with 0.2% Triton X-100; blots probed with anti-CD44 or anti-CD147.

As for CD44 (from UniProt P16070 21-742), the binding entry was “binds”.
